Results from PMC7746826.
No constants are given. Whether binding was seen depends on the method and setting. In cells and extracts the contact can be indirect. Some binding calls cover weakened binding; strength is not graded here.

The chains behind the UniProt entries cited, without tags or fusion partners. Where a name states a change or a piece, a line headed by the entry shows the natural chain unless it says otherwise.
UniProt P54646: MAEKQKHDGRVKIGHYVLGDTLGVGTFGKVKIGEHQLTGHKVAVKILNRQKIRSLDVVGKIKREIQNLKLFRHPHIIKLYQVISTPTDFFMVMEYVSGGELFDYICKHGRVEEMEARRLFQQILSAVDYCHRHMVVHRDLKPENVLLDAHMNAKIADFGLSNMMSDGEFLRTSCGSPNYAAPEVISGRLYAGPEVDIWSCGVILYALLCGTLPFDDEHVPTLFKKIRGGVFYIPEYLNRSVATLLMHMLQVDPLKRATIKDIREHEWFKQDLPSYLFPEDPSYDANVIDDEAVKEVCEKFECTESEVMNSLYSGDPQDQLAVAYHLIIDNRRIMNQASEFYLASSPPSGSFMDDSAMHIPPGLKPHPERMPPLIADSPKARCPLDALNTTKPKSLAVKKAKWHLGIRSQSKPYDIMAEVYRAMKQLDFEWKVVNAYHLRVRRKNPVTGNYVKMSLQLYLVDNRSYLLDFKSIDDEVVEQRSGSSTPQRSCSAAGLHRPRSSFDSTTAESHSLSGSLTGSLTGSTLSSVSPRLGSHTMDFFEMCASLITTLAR
UniProt Q8R455: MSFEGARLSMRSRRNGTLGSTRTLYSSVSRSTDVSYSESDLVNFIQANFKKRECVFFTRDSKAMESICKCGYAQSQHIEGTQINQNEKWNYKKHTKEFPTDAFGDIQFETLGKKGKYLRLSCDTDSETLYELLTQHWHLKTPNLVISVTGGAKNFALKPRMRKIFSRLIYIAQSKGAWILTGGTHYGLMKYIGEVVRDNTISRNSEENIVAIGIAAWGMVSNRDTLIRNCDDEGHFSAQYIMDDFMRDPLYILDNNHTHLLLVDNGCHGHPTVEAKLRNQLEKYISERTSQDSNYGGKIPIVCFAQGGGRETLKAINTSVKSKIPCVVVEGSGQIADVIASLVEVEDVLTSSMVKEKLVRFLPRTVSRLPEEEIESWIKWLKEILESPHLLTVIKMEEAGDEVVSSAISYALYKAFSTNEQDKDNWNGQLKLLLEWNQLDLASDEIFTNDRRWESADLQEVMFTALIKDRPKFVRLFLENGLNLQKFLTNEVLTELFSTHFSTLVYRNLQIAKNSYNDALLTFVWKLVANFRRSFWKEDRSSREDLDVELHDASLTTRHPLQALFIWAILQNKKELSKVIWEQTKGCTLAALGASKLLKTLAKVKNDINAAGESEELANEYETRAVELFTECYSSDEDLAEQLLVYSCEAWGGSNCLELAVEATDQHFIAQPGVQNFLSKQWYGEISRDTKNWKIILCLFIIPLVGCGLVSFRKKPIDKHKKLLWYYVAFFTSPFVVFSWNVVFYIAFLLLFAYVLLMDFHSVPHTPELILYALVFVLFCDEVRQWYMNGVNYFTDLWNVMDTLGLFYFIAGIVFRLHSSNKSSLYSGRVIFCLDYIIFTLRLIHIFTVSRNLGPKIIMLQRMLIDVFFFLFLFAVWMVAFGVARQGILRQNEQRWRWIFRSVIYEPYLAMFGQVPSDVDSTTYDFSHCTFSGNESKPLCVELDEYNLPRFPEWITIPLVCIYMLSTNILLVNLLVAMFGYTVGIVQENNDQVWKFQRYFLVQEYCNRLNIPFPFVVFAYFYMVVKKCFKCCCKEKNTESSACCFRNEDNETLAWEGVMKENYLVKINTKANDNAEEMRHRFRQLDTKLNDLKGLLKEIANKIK

Columns and labels:
[1] = biological target: Flag-tagged PRKAA2 (protein kinase AMP-activated catalytic subunit alpha 2, AMPKa2, Flag-AMPK) (human) (UniProt P54646); assay: co-IP; MCF7 cells cotransfected, lysed 48 h after transfection in 50 mM Tris/HCl pH 7.5, 150 mM NaCl, 2 mM EDTA, 1% NP-40; anti-GFP or anti-Flag antibody with Protein A/G PLUS-agarose, 2 h at 4°C; western blot for the other tag
GFP-AMPK (human) = GFP-AMPK (human) (UniProt P54646); assay: as above

| binding [1] | binding (GFP-AMPK (human)) | Substance |
| --- | --- | --- |
| binds |  | green fluorescent protein-tagged TRPM8 (GFP-TRPM8) (from UniProt Q8R455 1-1104) |
|  | binds | Flag-tagged cytosolic C-terminus of TRPM8 (Flag-M8-C) (from UniProt Q8R455 980-1104) (domain or fragment) |
